Source: PubChem BioAssay AID1053208 (Peter MacCallum Cancer Centre, 2014)
In all, the deposit lists about 17,000 reagents; shown is an unselected part. Over the whole deposit, 788 (4.7%) are marked active. 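Calls rest on z-score classes alone; an extra cut-off of viability at most 70% of control was not applied to them.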 Further read-outs or replicates are left out here.

Purpose: 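Genes whose silencing cuts survival of bone tumour cells only with doxorubicin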 (primary screen)
Cells: mouse osteosarcoma cells, early-passage culture from an engineered mouse model of fibroblastic bone tumour
Reagents: siRNA pool against mouse genes, 40 nM
Duration: about 120 h (48 h before drug, then 72 h with drug)
Treatment: doxorubicin 100 nM for 72 h, roughly 30-40% inhibitory dose
Detection: 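Viability read as ATP luminescence after 72 h of 100 nM doxorubicin or none, duplicate wells averaged, scaled to non-targeting siRNA, then expressed as robust z-scores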
Scale: viability z-score with doxorubicin: higher = more viable cells under doxorubicin; viability z-score without drug: higher = more viable cells with knock-down alone
Active means: 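Called active if knock-down leaves viability unchanged without drug (z within -2 to 2) but lowers it with doxorubicin (z at or under -2)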

With Setd4, how do the results read?
combined z-score class: no change with or without drug; viability z-score with doxorubicin: -0.22; viability z-score without drug: -0.51; activity call: inactive

With Ppp1r12b, what does the deposit list?
combined z-score class: no change with or without drug; viability z-score with doxorubicin: -1.35; viability z-score without drug: -0.51; activity call: inactive

For Slc25a33, how do the results read?
combined z-score class: no change with or without drug; viability z-score with doxorubicin: 1.69; viability z-score without drug: 1.85; activity call: inactive

Which result is listed for Ido2?
combined z-score class: no change with or without drug; viability z-score with doxorubicin: -0.22; viability z-score without drug: -1.85; activity call: inactive

How did the screen score Nip7?
combined z-score class: high cell count with doxorubicin only; viability z-score with doxorubicin: 2.25; viability z-score without drug: -0.17; activity call: inactive

Which result is listed for Nol12?
combined z-score class: low cell count with doxorubicin only; viability z-score with doxorubicin: -2.59; viability z-score without drug: -1.52; activity call: active

What did the screen give for Fbxo16?
combined z-score class: no change with or without drug; viability z-score with doxorubicin: -1.57; viability z-score without drug: 0.51; activity call: inactive

With Nagk, what was measured?
combined z-score class: no change with or without drug; viability z-score with doxorubicin: 0.56; viability z-score without drug: 1.52; activity call: inactive

With Apoc3, what does the deposit list?
combined z-score class: no change with or without drug; viability z-score with doxorubicin: 0.34; viability z-score without drug: 0.51; activity call: inactive

What is on record for Rtn4ip1?
combined z-score class: high cell count with and without drug; viability z-score with doxorubicin: 2.59; viability z-score without drug: 2.19; activity call: inactive

With Neurog3, what was measured?
combined z-score class: no change with or without drug; viability z-score with doxorubicin: 1.35; viability z-score without drug: -0.17; activity call: inactive

For Gm10033, what was measured?
combined z-score class: low cell count with doxorubicin only; viability z-score with doxorubicin: -2.02; viability z-score without drug: -0.17; activity call: active

Which result is listed for Klk1b9?
combined z-score class: low cell count without drug only; viability z-score with doxorubicin: -1.91; viability z-score without drug: -3.04; activity call: inactive

What did the screen give for Rasl2-9?
combined z-score class: no change with or without drug; viability z-score with doxorubicin: -0.45; viability z-score without drug: 1.52; activity call: inactive

For Zmym2, how do the results read?
combined z-score class: no change with or without drug; viability z-score with doxorubicin: 0.22; viability z-score without drug: -0.17; activity call: inactive

With Or52m2, how do the results read?
combined z-score class: no change with or without drug; viability z-score with doxorubicin: -0.11; viability z-score without drug: -0.17; activity call: inactive

What did the screen give for Usp6nl?
combined z-score class: no change with or without drug; viability z-score with doxorubicin: 0.11; viability z-score without drug: -0.84; activity call: inactive

What did the screen give for Gatb?
combined z-score class: no change with or without drug; viability z-score with doxorubicin: 1.24; viability z-score without drug: -0.34; activity call: inactive

For Peli3, what does the deposit list?
combined z-score class: no change with or without drug; viability z-score with doxorubicin: -0.11; viability z-score without drug: 0.51; activity call: inactive

What is on record for Reg3g?
combined z-score class: no change with or without drug; viability z-score with doxorubicin: 0.34; viability z-score without drug: -0.84; activity call: inactive

For Sec22b, how do the results read?
combined z-score class: no change with or without drug; viability z-score with doxorubicin: -0.67; viability z-score without drug: -1.18; activity call: inactive

Which result is listed for Hs1bp3?
combined z-score class: no change with or without drug; viability z-score with doxorubicin: -0.22; viability z-score without drug: 1.69; activity call: inactive

For Akt1s1, how do the results read?
combined z-score class: no change with or without drug; viability z-score with doxorubicin: 0.45; viability z-score without drug: -0.67; activity call: inactive

What did the screen give for Adcy7?
combined z-score class: no change with or without drug; viability z-score with doxorubicin: 0.45; viability z-score without drug: -0.34; activity call: inactive

What did the screen give for Gstm1?
combined z-score class: no change with or without drug; viability z-score with doxorubicin: 1.01; viability z-score without drug: 0.17; activity call: inactive

What did the screen give for Siglece?
combined z-score class: no change with or without drug; viability z-score with doxorubicin: 1.24; viability z-score without drug: 0.67; activity call: inactive

For Scamp2, what does the deposit list?
combined z-score class: no change with or without drug; viability z-score with doxorubicin: 1.46; viability z-score without drug: -0.34; activity call: inactive

With Mbd1, what was measured?
combined z-score class: no change with or without drug; viability z-score with doxorubicin: 0.45; viability z-score without drug: -0.34; activity call: inactive

Part of the list above, reduced to “combined z-score class”.
Ido2 = no change with or without drug
Nip7 = high cell count with doxorubicin only
